From PubChem BioAssay AID248 (DTP/NCI, 2004)
The list does not hold the whole screen: it covers a few groups of compounds. Not every dose and run of a compound is shown. T/C: endpoint of the treated group in % of that of the vehicle group. Some doses have a count of surviving animals in place of a T/C: the source holds a T/C of zero for them, seemingly a mark for toxic or unscored doses. Counts of survivors are from the toxicity check (mostly the fifth day) where no day follows; animals may have died later. Schedules are NCI's codes, taken here to give the interval after Q, in days (D) or hours (H), and the number of doses after X. Where survival is the endpoint, the PubChem record calls one and a half times the control and up active, and a quarter to a half above the control has no call in these data; cut-offs in other NCI protocols can differ. Signs of the kind (2×) stand for listed records that agree. Some doses were run more than once; the results are listed from low to high. Some schedules carry Z or #; the key to these is not given. Some T/C values carry the count of animals alive at the toxicity check (mostly the fifth day); without a count or a note in brackets, all were alive then.

Test system: L1210 leukemia ip in BDF1 mice, survival T/C
Assay: NCI In Vivo Anticancer Drug Screen. Data for tumor model L1210 Leukemia (intraperitoneal) in B6D2F1 (BDF1) mice
Details: T/C endpoint: mean survival time, higher T/C = longer survival
[1] = dose: 112.0 mg/kg/injection, schedule: Q01DX006 (iv), vehicle: carboxymethylcellulose (CMC)

What does the source list for `NC(=O)c1[nH]cnc1/N=N\N(CCCl)CCCl`?
T/C (dose: 100.0 mg/kg/injection, schedule: Q## X005 (ip), vehicle: carboxymethylcellulose (CMC)): 301 % of control; T/C (dose: 102.0 mg/kg/injection, schedule: Q01DX001 (ip), vehicle: carboxymethylcellulose (CMC)): 178 and 205 % of control; T/C (dose: 102.0 mg/kg/injection, schedule: Q07DX Z (ip), vehicle: carboxymethylcellulose (CMC)): 226 and 333 % of control; T/C (dose: 106.0 mg/kg/injection, schedule: Q01DX001 (ip), vehicle: other): 147 % of control; T/C (dose: 108.0 mg/kg/injection, schedule: Q01DX009 (ip), vehicle: carboxymethylcellulose (CMC)): 267 % of control; T/C (dose: 108.0 mg/kg/injection, schedule: Q01DX017 (ip), vehicle: carboxymethylcellulose (CMC)): 225 % of control; T/C (dose: 108.0 mg/kg/injection, schedule: Q01DX Z (ip), vehicle: carboxymethylcellulose (CMC)): 206 and 215 % of control; T/C (dose: 108.0 mg/kg/injection, schedule: Q01DX Z (sc), vehicle: carboxymethylcellulose (CMC)): 272 % of control; T/C (dose: 108.0 mg/kg/injection, schedule: Q04DX003 (ip), vehicle: carboxymethylcellulose (CMC)): 265 % of control; T/C (dose: 108.0 mg/kg/injection, schedule: Q04DX005 (ip), vehicle: carboxymethylcellulose (CMC)): 335 % of control; T/C (dose: 108.0 mg/kg/injection, schedule: Q04DX Z (ip), vehicle: carboxymethylcellulose (CMC)): 312 and 475 % of control; T/C (dose: 108.0 mg/kg/injection, schedule: Q04DX Z (sc), vehicle: carboxymethylcellulose (CMC)): 146 % of control; T/C [1]: 313 % of control [5 of 6 alive]; survivor count [1]: 1 of 6; T/C (dose: 112.0 mg/kg/injection, schedule: Q01DX Z (im), vehicle: carboxymethylcellulose (CMC)): 190 and 287 % of control; T/C (dose: 112.0 mg/kg/injection, schedule: Q01DX Z (ip), vehicle: carboxymethylcellulose (CMC)): 165 and 174 % of control; T/C (dose: 112.0 mg/kg/injection, schedule: Q01DX Z (oral), vehicle: carboxymethylcellulose (CMC)): 175 and 288 % of control; T/C (dose: 112.0 mg/kg/injection, schedule: Q01DX Z (sc), vehicle: carboxymethylcellulose (CMC)): 180 and 246 % of control; T/C (dose: 120.0 mg/kg/injection, schedule: Q01DX001 (ip), vehicle: clinical formulation): 96 and 150 % of control; T/C (dose: 125.0 mg/kg/injection, schedule: Q01DX001 (ip), vehicle: carboxymethylcellulose (CMC)): 175 % of control; T/C (dose: 125.0 mg/kg/injection, schedule: Q06HX008 (ip), vehicle: carboxymethylcellulose (CMC)): 520 % of control; T/C (dose: 126.0 mg/kg/injection, schedule: Q#A X Z (ip), vehicle: carboxymethylcellulose (CMC)): 100 % of control [5 of 6 alive]; T/C (dose: 129.6 mg/kg/injection, schedule: Q01DX001 (ip), vehicle: other): 108 % of control; T/C (dose: 129.6 mg/kg/injection, schedule: Q01DX001 (ip), vehicle: steroid suspending solution): 99 % of control; T/C (dose: 134.5 mg/kg/injection, schedule: Q01DX001 (ip), vehicle: steroid suspending solution): 289 % of control; T/C (dose: 135.0 mg/kg/injection, schedule: Q04DX004 (ip), vehicle: other): 294 % of control; T/C (dose: 150.0 mg/kg/injection, schedule: Q01DX001 (ip), vehicle: carboxymethylcellulose (CMC)): 161, 183, 188, 200 % of control; T/C (dose: 150.0 mg/kg/injection, schedule: Q01DX005 (oral), vehicle: carboxymethylcellulose (CMC)): 221 % of control; T/C (dose: 150.0 mg/kg/injection, schedule: Q01DX009 (oral), vehicle: carboxymethylcellulose (CMC)): 300 % of control; T/C (dose: 150.0 mg/kg/injection, schedule: Q01DX017 (oral), vehicle: steroid suspending solution): 109 and 166 % of control; T/C (dose: 150.0 mg/kg/injection, schedule: Q03DX Z (ip), vehicle: carboxymethylcellulose (CMC)): 327 % of control; T/C (dose: 150.0 mg/kg/injection, schedule: Q03HX008 (oral), vehicle: carboxymethylcellulose (CMC)): 147 % of control; T/C (dose: 150.0 mg/kg/injection, schedule: Q04DX005 (oral), vehicle: carboxymethylcellulose (CMC)): 226 % of control; T/C (dose: 150.0 mg/kg/injection, schedule: Q04DX005 (oral), vehicle: steroid suspending solution): 141 % of control; T/C (dose: 150.0 mg/kg/injection, schedule: Q06HX012 (oral), vehicle: steroid suspending solution): 105 % of control; T/C (dose: 150.0 mg/kg/injection, schedule: Q06HX020 (oral), vehicle: steroid suspending solution): 165 % of control [7 of 8 alive]; T/C (dose: 150.0 mg/kg/injection, schedule: Q08DX003 (oral), vehicle: carboxymethylcellulose (CMC)): 131 % of control; T/C (dose: 150.0 mg/kg/injection, schedule: Q12HX004 (ip), vehicle: carboxymethylcellulose (CMC)): 449 % of control; T/C (dose: 150.0 mg/kg/injection, schedule: Q## X001 (ip), vehicle: carboxymethylcellulose (CMC)): 267 % of control; T/C (dose: 150.0 mg/kg/injection, schedule: Q## X009 (oral), vehicle: carboxymethylcellulose (CMC)): 315 % of control; T/C (dose: 153.0 mg/kg/injection, schedule: Q01DX001 (ip), vehicle: carboxymethylcellulose (CMC)): 279 % of control; T/C (dose: 153.0 mg/kg/injection, schedule: Q07DX Z (ip), vehicle: carboxymethylcellulose (CMC)): 348 % of control; T/C (dose: 156.0 mg/kg/injection, schedule: Q01DX001 (ip), vehicle: other): 154 % of control (2×); T/C (dose: 166.0 mg/kg/injection, schedule: Q04DX003 (ip), vehicle: other): 232 and 307 % of control; survivor count (dose: 168.0 mg/kg/injection, schedule: Q01DX006 (iv), vehicle: carboxymethylcellulose (CMC)): 0 of 6; T/C (dose: 168.0 mg/kg/injection, schedule: Q01DX Z (im), vehicle: carboxymethylcellulose (CMC)): 152 % of control; T/C (dose: 168.0 mg/kg/injection, schedule: Q01DX Z (ip), vehicle: carboxymethylcellulose (CMC)): 119 % of control; T/C (dose: 168.0 mg/kg/injection, schedule: Q01DX Z (oral), vehicle: carboxymethylcellulose (CMC)): 155 % of control; T/C (dose: 168.0 mg/kg/injection, schedule: Q01DX Z (sc), vehicle: carboxymethylcellulose (CMC)): 137 and 160 % of control; survivor count (dose: 175.0 mg/kg/injection, schedule: Q01DX001 (ip), vehicle: carboxymethylcellulose (CMC)): 0 of 10; survivor count (dose: 175.0 mg/kg/injection, schedule: Q04DX002 (ip), vehicle: carboxymethylcellulose (CMC)): 0 of 10; T/C (dose: 175.0 mg/kg/injection, schedule: Q04DX003 (ip), vehicle: carboxymethylcellulose (CMC)): 277 % of control; T/C (dose: 175.0 mg/kg/injection, schedule: Q04DX004 (ip), vehicle: carboxymethylcellulose (CMC)): 305 % of control; T/C (dose: 175.0 mg/kg/injection, schedule: Q04DX005 (ip), vehicle: carboxymethylcellulose (CMC)): 322 % of control; T/C (dose: 180.0 mg/kg/injection, schedule: Q01DX001 (ip), vehicle: carboxymethylcellulose (CMC)): 147, 220, 327 % of control; T/C (dose: 180.0 mg/kg/injection, schedule: Q01DX001 (ip), vehicle: clinical formulation): 94 and 219 % of control; T/C (dose: 180.0 mg/kg/injection, schedule: Q01DX009 (ip), vehicle: carboxymethylcellulose (CMC)): 124 % of control; T/C (dose: 180.0 mg/kg/injection, schedule: Q01DX017 (ip), vehicle: carboxymethylcellulose (CMC)): 160 % of control; T/C (dose: 180.0 mg/kg/injection, schedule: Q01DX Z (ip), vehicle: carboxymethylcellulose (CMC)): 113 and 160 % of control; T/C (dose: 180.0 mg/kg/injection, schedule: Q01DX Z (sc), vehicle: carboxymethylcellulose (CMC)): 224 % of control; T/C (dose: 180.0 mg/kg/injection, schedule: Q04DX003 (ip), vehicle: carboxymethylcellulose (CMC)): 468 % of control; T/C (dose: 180.0 mg/kg/injection, schedule: Q04DX005 (ip), vehicle: carboxymethylcellulose (CMC)): 535 % of control
